Patent US20030202938A1 (UNIVERSITY OF MEDICINE AND DENTISTRY OF NEW JERSEY, published 2003)
Results are given in words; binding and its absence hold for the method and conditions named. Some results given as binding are weak or reduced against the parent protein; the word gives no strength. For part of these data: Where a sequence is shown, tags or fusion partners need not be part of it.

Protein sequences, listed by entry. Tags and fused reporters are not part of them. Lines headed by an entry give the natural chain unless they say otherwise; changes in a name come on top. Residues count along the entry.
UniProt P20366: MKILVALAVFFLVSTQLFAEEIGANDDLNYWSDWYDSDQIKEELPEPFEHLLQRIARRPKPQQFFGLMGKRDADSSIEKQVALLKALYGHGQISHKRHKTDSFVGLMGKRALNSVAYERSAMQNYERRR
UniProt P02751, residues 627-702: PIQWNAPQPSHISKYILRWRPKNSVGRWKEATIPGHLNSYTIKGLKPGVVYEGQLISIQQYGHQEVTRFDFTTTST

Columns and labels:
Substance P [1] = target: T1, Substance P (UniProt P20366); test: SELDI-TOF ProteinChip, FN-IIIC covalently bound to PS-1 chip, SP added and detected
T1 sequence (peptide, looked up): RPKPQQFFGLM

Substance P [2] = target: T1, Substance P; test: SELDI-TOF ProteinChip, HGFIN covalently bound to PS-1 chip, SP added and detected
Substance P [3] = target: T1, Substance P; test: SELDI-TOF ProteinChip, HGFIN on PS-1 chip, SP added and detected

Fibronectin-Fragment III-C (from UniProt P02751 627-702)
binding (Substance P [1]): binds

B1: HGFIN-HAT (Hematopoietic Growth Factor Inducible Neurokinin-1 type protein with histidine affinity tag, expressed from pHAT10-HGFIN in bacteria) (receptor, not shown: small tags and cut ends)
chain: KRFHDVLGNERPSAYMREHNQLNGWSSDENDWNEKLYPVWKRGDMRWKNSWKGGRVQAVLTSDSPALVGSNITFAVNLIFPRCQKEDANGNIVYEKNCRNEAGLSADPYVYNWTAWSEDSDGENGTGQSHHNVFPDGKPFPHHPGWRRWNFIYVFHTLGQYFQKLGRCSVRVSVNTANVTLGPQLMEVTVYRRHGRAYVPIAQVKDVYVVTDQIPVFVTMFQKNDRNSSDETFLKDLPIMFDVLIHDPSHFLNYSTINYKWSFGDNTGLFVSTNHTVNHTYVLNGTFSLNLTVKAAAPGPCPPPPPPPRPSKPTPSLGPAGDNPLELSRIPDENCQINRYGHFQATITIVEGILEVNIIQMTDVLMPVPWPESSLIDFVVTCQGSIPTEVCTIISDPTCEITQNTVCSPVDVDEMCLLTVRRTFNGSGTYCVNLTLGDDTSLALTSTLISVPDRDPASPLRMANSALISVGCLAIFVTVISLLVYKKHKEYNPIENSPGNVVRSKGLSVFLNRAKAVFFPGNQEKDPLLKNQEFKGVS
binding (Substance P [2]): binds

B2: HGFIN expressed in a eukaryotic vector in the absence of the HAT tag (receptor)
chain: KRFHDVLGNERPSAYMREHNQLNGWSSDENDWNEKLYPVWKRGDMRWKNSWKGGRVQAVLTSDSPALVGSNITFAVNLIFPRCQKEDANGNIVYEKNCRNEAGLSADPYVYNWTAWSEDSDGENGTGQSHHNVFPDGKPFPHHPGWRRWNFIYVFHTLGQYFQKLGRCSVRVSVNTANVTLGPQLMEVTVYRRHGRAYVPIAQVKDVYVVTDQIPVFVTMFQKNDRNSSDETFLKDLPIMFDVLIHDPSHFLNYSTINYKWSFGDNTGLFVSTNHTVNHTYVLNGTFSLNLTVKAAAPGPCPPPPPPPRPSKPTPSLGPAGDNPLELSRIPDENCQINRYGHFQATITIVEGILEVNIIQMTDVLMPVPWPESSLIDFVVTCQGSIPTEVCTIISDPTCEITQNTVCSPVDVDEMCLLTVRRTFNGSGTYCVNLTLGDDTSLALTSTLISVPDRDPASPLRMANSALISVGCLAIFVTVISLLVYKKHKEYNPIENSPGNVVRSKGLSVFLNRAKAVFFPGNQEKDPLLKNQEFKGVS
binding (Substance P [3]): binds
